Results reported in article PMC12436592 (Nature Communications, 2025).

The chains behind the UniProt entries cited, without tags or fusion partners.
UniProt Q64663, whole entry: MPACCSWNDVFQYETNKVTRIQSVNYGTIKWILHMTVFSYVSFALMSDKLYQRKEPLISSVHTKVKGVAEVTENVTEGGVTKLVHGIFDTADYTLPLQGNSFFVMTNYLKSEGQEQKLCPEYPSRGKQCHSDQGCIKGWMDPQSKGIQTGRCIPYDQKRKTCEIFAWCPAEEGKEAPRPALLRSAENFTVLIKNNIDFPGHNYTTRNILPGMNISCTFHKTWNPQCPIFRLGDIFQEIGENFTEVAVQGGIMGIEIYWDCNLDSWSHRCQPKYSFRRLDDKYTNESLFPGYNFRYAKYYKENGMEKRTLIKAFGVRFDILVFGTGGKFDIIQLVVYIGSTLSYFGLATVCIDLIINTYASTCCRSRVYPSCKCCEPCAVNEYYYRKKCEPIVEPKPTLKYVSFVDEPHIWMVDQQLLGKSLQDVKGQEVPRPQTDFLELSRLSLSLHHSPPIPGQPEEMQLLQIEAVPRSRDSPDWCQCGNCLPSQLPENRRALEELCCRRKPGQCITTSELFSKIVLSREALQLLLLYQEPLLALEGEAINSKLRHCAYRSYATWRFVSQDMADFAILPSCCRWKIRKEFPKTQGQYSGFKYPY
UniProt Q9Z1M0, whole entry: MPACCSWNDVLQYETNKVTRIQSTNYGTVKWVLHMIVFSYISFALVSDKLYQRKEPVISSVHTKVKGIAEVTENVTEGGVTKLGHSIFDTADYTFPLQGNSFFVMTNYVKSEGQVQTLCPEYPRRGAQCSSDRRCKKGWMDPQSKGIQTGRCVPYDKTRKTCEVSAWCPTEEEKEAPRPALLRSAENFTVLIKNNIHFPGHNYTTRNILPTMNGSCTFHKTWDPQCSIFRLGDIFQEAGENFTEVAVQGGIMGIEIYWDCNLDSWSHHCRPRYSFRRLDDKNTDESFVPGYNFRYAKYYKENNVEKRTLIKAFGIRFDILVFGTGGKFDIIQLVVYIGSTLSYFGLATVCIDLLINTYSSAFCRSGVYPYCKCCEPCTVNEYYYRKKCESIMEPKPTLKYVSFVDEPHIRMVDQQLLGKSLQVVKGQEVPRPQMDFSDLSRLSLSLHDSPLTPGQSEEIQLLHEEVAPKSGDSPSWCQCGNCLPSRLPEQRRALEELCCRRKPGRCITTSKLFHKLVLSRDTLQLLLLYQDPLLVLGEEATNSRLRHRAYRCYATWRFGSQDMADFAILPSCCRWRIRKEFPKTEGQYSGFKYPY

Tests used:
rP2X7R = rP2X7R (Rattus norvegicus, UniProt Q64663); experiment: TEVC dose response of ATP at rP2X7R in Xenopus oocytes; type: cell-based; details: [ATP] 11 μM
Method: (§1) Defolliculated Xenopus laevis oocytes were purchased from Ecocyte Bioscience and kept in Modified Barth’s Solution (88 mM NaCl, 1 mM KCl, 0.82 mM MgSO4, 0.33 mM Ca(NO3)2·4H2O, 0.41 mM CaCl2·2H2O, 2.4 mM NaHCO3, 5 mM HEPES) supplemented with amikacin 250 mg/L and gentamycin 150 mg/L. Oocytes were then injected with 50 nL of either full-length wild-type hP2X7R (40 ng/μL), mP2X7R (20 ng/μL), or rP2X7R (20 ng/μL) mRNA made from linearized pcDNA 3.1x according to the protocol provided in the mMessage mMachine kit (Invitrogen). Injected oocytes were allowed to express for ~20 h before recording was performed.
(§2) Data acquisition was performed using an Oocyte Clamp OC-725C amplifier and pClamp 8.2 software. Buffers were applied using a gravity-fed RSC-200 Rapid Solution Changer, flowing at ~5 mL/min. All experiments use Sutter filamented glass 10 cm in length with an inner diameter of 0.69 mm and an outer diameter of 1.2 mm to impale oocytes and clamp the holding voltage at −60 mV. Experiments were recorded in buffer containing 100 mM NaCl, 2.5 mM KCl, 0.1 mM EDTA, 0.1 mM flufenamic acid, and 5 mM HEPES at pH 7.4. All oocytes expressing P2X7R were facilitated with multiple applications of 100 μM ATP before any data was recorded. […]

mP2X7R = mP2X7R (Mus musculus, UniProt Q9Z1M0); experiment: TEVC dose response of ATP at mP2X7R in Xenopus oocytes; type: cell-based; details: [ATP] 12.3 μM
Method: as §1, §2

Normalized response, rP2X7R (rP2X7R): 0.05, 0.1128, 0.1582
Normalized response, mP2X7R (mP2X7R): 0.03, 0.02, 0.05
SMILES: Nc1ncnc2c1ncn2[C@@H]1O[C@H](COP(=O)(O)OP(=O)(O)OP(=O)(O)O)[C@@H](O)[C@H]1O [ATP]

Some entries of the source have several records that differ or are many. The other results are left out here. There may be further records. The records of an entry differ, and nothing given here explains why; some may be repeats, others may stem from another dose, organism or construct than stated.
